In publication PMC3327649:
No constants are given. Whether binding was seen depends on the method and setting. In cells and extracts the contact can be indirect. Some binding calls cover weakened binding; strength is not graded here. For part of these data: Where a sequence is shown, tags or fusion partners need not be part of it.

The chains behind the UniProt entries cited, without tags or fusion partners. Where a name states a change or a piece, a line headed by the entry shows the natural chain unless it says otherwise.
UniProt Q3T0E7: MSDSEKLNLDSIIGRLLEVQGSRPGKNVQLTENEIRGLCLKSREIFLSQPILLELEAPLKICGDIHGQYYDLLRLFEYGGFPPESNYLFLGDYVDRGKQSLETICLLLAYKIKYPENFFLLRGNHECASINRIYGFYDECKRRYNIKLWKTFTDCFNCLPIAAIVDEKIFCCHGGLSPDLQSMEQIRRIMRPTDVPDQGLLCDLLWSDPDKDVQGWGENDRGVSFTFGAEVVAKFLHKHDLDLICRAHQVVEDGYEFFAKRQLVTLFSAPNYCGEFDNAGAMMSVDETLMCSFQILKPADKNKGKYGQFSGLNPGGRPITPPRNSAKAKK
UniProt Q3SWW9: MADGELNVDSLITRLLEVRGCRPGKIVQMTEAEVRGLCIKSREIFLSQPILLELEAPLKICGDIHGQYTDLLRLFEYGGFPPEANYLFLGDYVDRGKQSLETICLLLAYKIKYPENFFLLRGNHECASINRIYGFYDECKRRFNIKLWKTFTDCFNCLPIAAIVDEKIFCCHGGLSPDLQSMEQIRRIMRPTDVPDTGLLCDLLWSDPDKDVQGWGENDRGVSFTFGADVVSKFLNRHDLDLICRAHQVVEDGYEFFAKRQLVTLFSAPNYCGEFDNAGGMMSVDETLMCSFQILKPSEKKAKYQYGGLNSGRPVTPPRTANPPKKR

T1: Ezrin-radixin-moesin (ERM)-binding phosphoprotein 50 (EBP50), endogenous in BPAEC (bovine (endogenous in BPAEC)) (UniProt Q3SZK8)
T1 sequence: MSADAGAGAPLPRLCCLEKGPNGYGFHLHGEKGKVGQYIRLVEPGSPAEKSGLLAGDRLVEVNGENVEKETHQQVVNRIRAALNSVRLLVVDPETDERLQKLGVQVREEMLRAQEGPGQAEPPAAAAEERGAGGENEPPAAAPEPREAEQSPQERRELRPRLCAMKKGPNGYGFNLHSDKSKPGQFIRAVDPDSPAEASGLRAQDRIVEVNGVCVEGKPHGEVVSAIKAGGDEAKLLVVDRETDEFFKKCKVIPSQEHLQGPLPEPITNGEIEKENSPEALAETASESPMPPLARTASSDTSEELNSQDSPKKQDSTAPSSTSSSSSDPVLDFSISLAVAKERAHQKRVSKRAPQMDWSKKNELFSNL

T2: PP2A Bα–V5 (pcDNA3.1 V5-His PP2A Bα) (UniProt P63151)
T2 sequence: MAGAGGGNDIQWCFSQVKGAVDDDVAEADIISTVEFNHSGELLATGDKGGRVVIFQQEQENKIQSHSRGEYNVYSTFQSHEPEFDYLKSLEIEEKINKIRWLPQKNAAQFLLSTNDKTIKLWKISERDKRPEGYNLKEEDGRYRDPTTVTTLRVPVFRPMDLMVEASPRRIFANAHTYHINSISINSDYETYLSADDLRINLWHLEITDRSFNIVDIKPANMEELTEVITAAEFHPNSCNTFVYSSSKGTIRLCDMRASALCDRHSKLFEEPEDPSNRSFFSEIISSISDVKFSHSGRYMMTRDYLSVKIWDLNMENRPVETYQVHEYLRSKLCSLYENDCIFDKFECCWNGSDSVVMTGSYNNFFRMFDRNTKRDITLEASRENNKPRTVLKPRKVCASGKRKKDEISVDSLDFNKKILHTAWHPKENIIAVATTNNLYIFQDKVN


How the values were obtained:
[1] = target: T1, Ezrin-radixin-moesin (ERM)-binding phosphoprotein 50 (EBP50), endogenous in BPAEC (bovine (endogenous in BPAEC)); test: co-IP; endogenous EBP50 immunoprecipitated with anti-EBP50 antibody and protein G Sepharose from lysates of asynchronized, thymidine (early S) or nocodazole (mitotic) treated BPAEC; IP buffer 20 mM Tris HCl pH 7.4, 150 mM NaCl, 2 mM EDTA, 2 mM sodium vanadate, 1% Nonidet P-40, 4°C; Western blot for phosphatase subunits
[2] = target: T2, PP2A Bα–V5 (pcDNA3.1 V5-His PP2A Bα); test: co-IP; lysates of BPAEC transfected with V5-tagged PP2A Bα or B′γ incubated with Anti-V5 Agarose Affinity Gel for 5 h at 4°C; washed with PBS, eluted by boiling in SDS buffer; Western blot for endogenous EBP50 and the V5 tag

Molecule	binding [1]	binding [2]
Protein phosphatase 1 catalytic subunit α isoform (PP1c α), endogenous in BPAEC (from UniProt Q3T0E7 1-330) (enzyme)	no binding	
Protein phosphatase 1 catalytic subunit δ isoform (PP1c δ), endogenous in BPAEC (from UniProt Q3SWW9 1-327) (enzyme)	no binding	
Ezrin-radixin-moesin (ERM)-binding phosphoprotein 50 (EBP50), endogenous in BPAEC (protein, UniProt Q3SZK8 1-368) MSADAGAGAPLPRLCCLEKGPNGYGFHLHGEKGKVGQYIRLVEPGSPAEKSGLLAGDRLVEVNGENVEKETHQQVVNRIRAALNSVRLLVVDPETDERLQKLGVQVREEMLRAQEGPGQAEPPAAAAEERGAGGENEPPAAAPEPREAEQSPQERRELRPRLCAMKKGPNGYGFNLHSDKSKPGQFIRAVDPDSPAEASGLRAQDRIVEVNGVCVEGKPHGEVVSAIKAGGDEAKLLVVDRETDEFFKKCKVIPSQEHLQGPLPEPITNGEIEKENSPEALAETASESPMPPLARTASSDTSEELNSQDSPKKQDSTAPSSTSSSSSDPVLDFSISLAVAKERAHQKRVSKRAPQMDWSKKNELFSNL		binds
